# Results reported in the supplement of paper PMC3334620.
# The full ranking holds about 33,000 sequences; the median of “E-score (-0.5 to 0.5)” is about -0.016, and the highest 2% start at about 0.3. This is one part of the list.
# Biological target: T1, Yer184c (UniProt P39961)
# T1 sequence: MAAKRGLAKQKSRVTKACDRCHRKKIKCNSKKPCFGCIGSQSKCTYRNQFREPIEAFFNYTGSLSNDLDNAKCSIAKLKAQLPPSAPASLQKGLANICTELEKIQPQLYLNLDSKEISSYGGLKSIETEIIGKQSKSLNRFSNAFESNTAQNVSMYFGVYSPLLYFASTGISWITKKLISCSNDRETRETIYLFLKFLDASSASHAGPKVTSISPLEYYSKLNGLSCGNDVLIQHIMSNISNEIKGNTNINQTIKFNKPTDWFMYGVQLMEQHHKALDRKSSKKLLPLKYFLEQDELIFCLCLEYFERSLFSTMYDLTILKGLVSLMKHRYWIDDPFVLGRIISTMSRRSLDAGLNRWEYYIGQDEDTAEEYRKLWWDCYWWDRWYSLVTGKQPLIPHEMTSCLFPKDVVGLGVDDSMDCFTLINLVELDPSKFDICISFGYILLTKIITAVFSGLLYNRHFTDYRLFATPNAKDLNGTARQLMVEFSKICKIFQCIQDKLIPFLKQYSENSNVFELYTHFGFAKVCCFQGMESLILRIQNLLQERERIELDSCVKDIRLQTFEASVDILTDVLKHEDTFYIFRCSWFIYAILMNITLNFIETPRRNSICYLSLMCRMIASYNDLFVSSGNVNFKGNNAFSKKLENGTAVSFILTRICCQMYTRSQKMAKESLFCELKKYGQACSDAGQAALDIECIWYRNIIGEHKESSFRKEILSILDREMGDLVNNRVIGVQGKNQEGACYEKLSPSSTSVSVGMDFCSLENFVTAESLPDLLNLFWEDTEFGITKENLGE
# Assay: PBM E-score (8-mer binding enrichment) (E-score (-0.5 to 0.5)); higher = stronger / more preferred TF binding
# Details: protein concentration: 100 nM; construct: GST-full length
# In short: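 E-scores (a modified Wilcoxon-Mann-Whitney statistic) were assigned by the Universal PBM Analysis Suite to every ungapped eight-base word pooled with its reverse complement. The input came from universal all-10-mer Agilent arrays made double-stranded by primer extension and probed with GST-tagged yeast transcription factors at about 100-200 nM. Fluorescent anti-GST detected bound protein, and masliner normalised the scans.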
row,Sequence,PBM E-score
1,CGCGGGAA,0.311
2,AGTGATGA,-0.111
3,GTGAGTTA,-0.0335
4,CTCGCAAG,0.0257
5,AGTATTAA,0.163
6,GGAGATCA,0.0983
7,CAACTGAA,-0.0313
8,ATGGGGCA,-0.252
9,CCGCCGAA,0.313
10,ACCCAGGC,0.0744
11,CTCGCCCC,-0.247
12,TAGTAAGA,0.125
13,ATAATAAG,0.153
14,CGGCGGTC,-0.0364
15,CCTCACTC,-0.0394
16,AGGCTAAC,0.00771
17,GTGTTGTA,0.0923
18,CAACACCC,-0.0822
19,CCATCCTA,-0.11
20,CGGGCCAC,0.0151
21,TAGAATCA,0.00352
22,ATTAACCC,0.0664
23,ACTAGTGA,-0.172
24,CTCCCTTA,-0.268
25,CCCATGTC,-0.0199

row,Sequence,PBM E-score
1,GCCCAAGC,-0.0265
2,CACGGGAC,0.0655
3,AATGCGAC,0.0858
4,GCAGCCGC,0.0669
5,CTAAATTA,0.202
6,GGTCGCCA,-0.184
7,AGTAGCGC,-0.0551
8,GCTTGGAC,-0.233
9,AAAACTTG,0.114
10,CTCCATCC,-0.183
11,AACAACCA,0.045
12,GGTATGGA,-0.125
13,ACGCGTAG,-0.127
14,CATCACGG,-0.056
15,GGATCTAC,0.076
16,ATACAAGA,0.0377
17,AACTGACC,-0.019
18,CGATGTAA,-0.045
19,CCCAATGA,-0.132
20,AAGGTGCT,-0.244
21,TCGAAAGA,0.133
22,CTAAGCAC,0.0214
23,GACTAGGC,-0.173
24,AGGGTCGG,-0.0268
25,AGAGCACT,0.0142

row,Sequence,PBM E-score
1,CGGGTATA,0.196
2,CCCTTGCG,-0.361
3,TATACCCA,-0.00854
4,ATGCGTAA,-0.234
5,CGCAAGTC,-0.215
6,AGTGTATC,-0.0625
7,AGTCCCCG,-0.141
8,AATTGATC,0.0994
9,AGTGAGAT,-0.107
10,CCGCTGGC,-0.164
11,GAAACACC,0.114
12,CATAAGGG,-0.00069
13,AGCCTATA,-0.0122
14,GCCCACTA,-0.2
15,CACTGTCC,0.0762
16,AACTGATA,0.102
17,CTGCAACC,-0.182
18,CTCTCCGC,0.093
19,CATTTGAA,0.0953
20,GTACTTTA,-0.0471
21,CCCAGCCG,0.0716
22,GTTAGTTA,0.178
23,AATAGATG,0.0604
24,CGTGCTGC,-0.0543
25,GCCGAGCC,0.34

# Shown with tabs: part of the list above
row	Sequence	PBM E-score
10	CCGCTGGC	-0.164
11	GAAACACC	0.114

# More records:

row,Sequence,PBM E-score
1,ACACTCGA,0.0367
2,ATGACCGA,0.0527
3,CTACCCGA,0.0786
4,AGAGGCGG,-0.0436
5,AAACTCTG,0.118
6,CGGGCACC,0.144
7,AAAAGTTC,0.0949
8,GGTACCAA,-0.0707
9,ATTTTCTA,0.165
10,TAGTGAAA,0.00664
11,GGACCTTA,-0.099
12,CGTACTAG,-0.0141
13,CCCTAGGC,-0.171
14,AAAGGTGC,-0.206
15,GGGACTAA,-0.0762
16,AGCTGCTC,-0.156
17,CAGCTTAC,-0.00815
18,AAGTCCAA,0.0676
19,ATCGTACC,-0.193
20,AATTTCCA,0.145
21,CACGCAAA,-0.0728
22,GGTAGGCA,-0.19
23,AAAAGGGC,-0.118
24,AGGTAGAA,-0.0769
25,CGAGTTGA,0.0776

row,Sequence,PBM E-score
1,GCACGGAA,0.159
2,GCGCATCA,-0.0524
3,GGACCAGA,-0.131
4,TAAGACCA,-0.0956
5,CTCCACCA,-0.217
6,GGTCTAAA,0.00102
7,ACATACGG,0.00388
8,ACTTTCTA,-0.0235
9,GAAACAAC,0.182
10,CGAGCTGC,0.0761
11,AAGCGACC,0.11
12,TACAGGGA,-0.212
13,CGTCGGAC,0.0076
14,AACGACCA,-0.0798
15,GGGGGCTA,-0.34
16,AGAACTGG,0.208
17,GGAGGACA,-0.0724
18,ATGCTTCA,-0.0764
19,AATACTGA,0.0147
20,AATGGCAT,0.164
21,CACTCCTC,-0.211
22,CTACGACC,-0.209
23,AGCTCCGG,0.313
24,CCGGTCTA,0.0628
25,AACCATTA,0.129

row,Sequence,PBM E-score
1,AGGAGCTC,-0.153
2,AGACCATC,-0.259
3,GAGGATGA,-0.0701
4,CAGGTCTA,-0.0675
5,CACGAGCG,-0.186
6,GGACCCAC,-0.182
7,GACAAAGA,0.124
8,GGCACAAA,0.0967
9,CAGTGTAA,0.149
10,CGGCCTGA,0.0451
11,AAGCGGCC,-0.09
12,ATTTAGAA,0.118
13,CCGTACCG,0.0861
14,CTGGTCAA,-0.0747
15,CTAGACCA,-0.161
16,ACGGAAGA,0.262
17,ATATTATA,0.163
18,ATACACCG,0.145
19,CGCGAAAA,0.0676
20,CCTAATCG,0.123
21,CTTTTGAA,0.173
22,CTTGGAGA,-0.0754
23,AAGTCTCA,-0.243
24,CTAATGAA,0.231
25,AAAGATAG,0.0599

row,Sequence,PBM E-score
1,AACGCATC,-0.116
2,AGTTAAGC,0.0327
3,ACTAACAC,-0.00933
4,AGTCTCGA,-0.0755
5,CTTCTCCC,-0.169
6,GTCCAGCA,-0.0918
7,CTGATACC,-0.102
8,AGAAATCG,0.156
9,GACTCATA,-0.00441
10,CGGCGCTC,0.121
11,TCGCGTAA,0.121
12,ATAATACG,0.153
13,AACGGAAA,0.408
14,ACATACTG,-0.0524
15,CACTCACG,-0.0258
16,CAGGCCCG,-0.0236
17,CGGTGCTC,0.0276
18,CCCCGTTA,-0.271
19,AACGCTCT,-0.246
20,CAGCCCAG,-0.289
21,AGGAGGTC,-0.316
22,CGATCTTC,0.00402

# Shown as tab-separated lines: entries from further up
row	Sequence	PBM E-score
14	ACATACTG	-0.0524
15	CACTCACG	-0.0258
16	CAGGCCCG	-0.0236
17	CGGTGCTC	0.0276
18	CCCCGTTA	-0.271
19	AACGCTCT	-0.246
